Values quoted from earlier work as cited in patent US10849878B2 (OBSHCHESTVO S OGRANICHENNOY OTVETSTVENNOSTYU “NORMOFARM”, priority 2015, dated 2020).
For at least one compound, name, drawing or mass did not settle the structure.

Chains of the proteins cited; added tags and fusions are not shown. Lines headed by an entry give the natural chain unless they say otherwise; changes in a name come on top.
UniProt O95622: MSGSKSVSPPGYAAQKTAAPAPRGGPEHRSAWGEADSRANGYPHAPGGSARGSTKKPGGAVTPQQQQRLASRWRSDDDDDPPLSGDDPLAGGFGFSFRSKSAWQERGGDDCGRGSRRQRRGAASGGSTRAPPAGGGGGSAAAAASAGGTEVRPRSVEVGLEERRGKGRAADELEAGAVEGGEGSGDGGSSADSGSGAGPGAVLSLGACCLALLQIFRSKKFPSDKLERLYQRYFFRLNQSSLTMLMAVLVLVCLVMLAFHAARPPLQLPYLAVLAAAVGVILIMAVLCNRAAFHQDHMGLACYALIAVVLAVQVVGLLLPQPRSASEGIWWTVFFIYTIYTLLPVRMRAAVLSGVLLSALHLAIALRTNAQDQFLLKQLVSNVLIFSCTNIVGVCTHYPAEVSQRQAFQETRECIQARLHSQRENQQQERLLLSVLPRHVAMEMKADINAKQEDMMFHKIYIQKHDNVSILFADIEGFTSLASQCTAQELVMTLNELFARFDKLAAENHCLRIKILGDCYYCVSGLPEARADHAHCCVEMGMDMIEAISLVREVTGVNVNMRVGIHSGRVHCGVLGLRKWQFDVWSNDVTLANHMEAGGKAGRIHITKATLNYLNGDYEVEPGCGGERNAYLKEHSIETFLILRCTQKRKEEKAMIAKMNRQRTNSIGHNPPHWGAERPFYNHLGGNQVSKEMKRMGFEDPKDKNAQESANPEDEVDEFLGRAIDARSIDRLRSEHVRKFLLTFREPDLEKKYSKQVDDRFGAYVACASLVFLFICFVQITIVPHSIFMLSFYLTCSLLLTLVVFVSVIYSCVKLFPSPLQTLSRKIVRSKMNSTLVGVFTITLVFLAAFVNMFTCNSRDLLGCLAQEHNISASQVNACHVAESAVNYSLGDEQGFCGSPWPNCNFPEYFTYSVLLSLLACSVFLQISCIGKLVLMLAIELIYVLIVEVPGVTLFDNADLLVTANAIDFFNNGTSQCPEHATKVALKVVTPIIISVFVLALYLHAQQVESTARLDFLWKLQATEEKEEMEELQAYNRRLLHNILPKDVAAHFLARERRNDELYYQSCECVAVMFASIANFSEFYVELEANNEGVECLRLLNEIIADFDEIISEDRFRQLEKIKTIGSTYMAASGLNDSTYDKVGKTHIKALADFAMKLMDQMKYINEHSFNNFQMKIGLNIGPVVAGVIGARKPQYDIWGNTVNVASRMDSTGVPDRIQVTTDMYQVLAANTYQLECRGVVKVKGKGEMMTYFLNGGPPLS

Columns and labels:
adenylate cyclase-5 = adenylate cyclase-5 (Homo sapiens, UniProt O95622); settings: activated with stimulation of D1 dopamine receptors; cited from earlier work
adenylate cyclase-7 = target: T1, adenylate cyclase-7 (Homo sapiens, UniProt P51828); settings: activated with stimulation of D1 dopamine receptors; cited from earlier work
T1 sequence (P51828 1-1080): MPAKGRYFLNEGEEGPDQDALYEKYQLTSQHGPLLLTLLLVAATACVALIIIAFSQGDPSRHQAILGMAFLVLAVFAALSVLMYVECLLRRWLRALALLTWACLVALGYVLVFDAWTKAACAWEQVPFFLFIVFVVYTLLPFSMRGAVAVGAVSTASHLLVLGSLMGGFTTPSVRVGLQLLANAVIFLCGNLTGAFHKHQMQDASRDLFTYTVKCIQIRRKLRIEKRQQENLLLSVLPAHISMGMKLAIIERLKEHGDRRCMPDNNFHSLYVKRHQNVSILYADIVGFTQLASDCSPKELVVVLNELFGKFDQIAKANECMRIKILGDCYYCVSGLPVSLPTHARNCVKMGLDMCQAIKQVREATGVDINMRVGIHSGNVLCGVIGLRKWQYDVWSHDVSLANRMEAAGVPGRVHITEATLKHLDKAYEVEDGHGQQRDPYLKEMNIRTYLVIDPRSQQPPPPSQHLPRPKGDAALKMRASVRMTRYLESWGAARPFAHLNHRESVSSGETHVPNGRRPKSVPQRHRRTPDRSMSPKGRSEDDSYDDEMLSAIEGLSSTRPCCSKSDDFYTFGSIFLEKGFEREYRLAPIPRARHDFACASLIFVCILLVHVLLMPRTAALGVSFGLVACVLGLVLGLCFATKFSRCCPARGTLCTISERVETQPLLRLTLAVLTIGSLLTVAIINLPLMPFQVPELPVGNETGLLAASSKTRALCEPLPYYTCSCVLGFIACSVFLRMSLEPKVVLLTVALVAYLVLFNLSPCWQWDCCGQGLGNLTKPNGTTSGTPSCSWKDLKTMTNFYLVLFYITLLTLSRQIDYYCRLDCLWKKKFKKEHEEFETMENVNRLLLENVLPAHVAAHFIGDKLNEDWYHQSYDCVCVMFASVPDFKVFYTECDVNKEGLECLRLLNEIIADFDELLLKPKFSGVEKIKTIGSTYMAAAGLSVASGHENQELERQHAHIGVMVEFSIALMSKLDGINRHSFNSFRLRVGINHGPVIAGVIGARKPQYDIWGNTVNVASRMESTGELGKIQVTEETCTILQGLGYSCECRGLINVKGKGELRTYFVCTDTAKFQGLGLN

[1] = test system: serotoninergic neurons in the culture; settings: 1 mM of lithium, short-term (8 h) and long-term (14 days) exposure; cited from earlier work
[2] = test system: synaptosomes of the striatal nerve; settings: exposed to lithium; cited from earlier work

For `[Li]` [Lithium], the “inhibition of adenylate cyclase-5” value (adenylate cyclase-5) is listed as 50%, the “inhibition of adenylate cyclase-7” value (adenylate cyclase-7) is listed as 40% and the “increase of serotonin secretion” value [1] is listed as 20%. For the same compound, the “selective tryptophan absorption in synaptosomes of the striatal nerve” value [2] was 40%.
